Measurements taken from patent US20130123358A1, “Metabolic Benefits to Butyrate as a Chronic Diet Supplement” (priority 2009, published 2013).

Test system: C57BL/6J mice on high fat diet
Experiment: Energy metabolism and body composition in diet-induced obesity, butyrate started with HFD
Type: in vivo, mouse
Conditions: butyrate 5% w/w in HFD vs control
Procedure: Male C57BL/6J (4 weeks in age) and ob/ob mice (4 weeks in age) were purchased from the Jackson Laboratory (Bar Harbor, Me.). After one week quarantine, the C57BL/6J mice were fed on the high fat diet (HFD, D12331, Research Diets, New Brunswick, N.J.), which contains 58% calories in fat. The ob/ob mice were fed on Chow diet (5001, Lab Diet) that contains 13.4% calories in fat. All of the mice were housed in the animal facility with a 12:12-h light-dark cycle and constant temperature (22-24° C.). The mice were free to access water and diet. […]
Body composition was measured using quantitative nuclear magnetic resonance (NMR) as previously described (15). […] The fat and lean mass were recorded within 1 min. […]
Energy expenditure, respiratory exchange ratio (RER), spontaneous physical movement, and food intake were measured simultaneously for each mouse with the Comprehensive Laboratory Animal Monitoring System (Columbus Instruments, Columbus, Ohio) as described previously (15). […] After 48 h of adaptation, the data were recorded for all parameters and used in analysis of the energy metabolism.
Butyrate was initially tested for prevention of dietary obesity. […] Calorie intake was monitored four times in the first ten weeks. […]

## CCCC(=O)[O-].[Na+] [sodium butyrate]
10 wks on HFD
  spontaneous physical activity at the night time: increased activity
24 hr feces at 12 weeks
  fat content in feces (fat absorption): identical in the feces of two groups
